In PubChem BioAssay AID493014 (National Center for Advancing Translational Sciences (NCATS), 2011) one finds AC50 data, which are given here for 40 compounds.

The nature of this experiment: qHTS Assay to Find Inhibitors of Chronic Active B-Cell Receptor Signaling. The settings on record: ABC-DLBCL IkBa-CBG/CBR reporter, luminescence ratio (green luciferase fused to IkBa over red control in TMD8 lymphoma cells), 4 h. Put shortly: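 Concentration-response series (up to 46 uM) were applied to TMD8 dual-reporter cells for 4 h at 37C with doxycycline. Green/red ratio, after filter-overlap correction, defined %Activity; red signal alone was normalised to basal cells and zero luminescence.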

Setting [1] is: measured here: CBR red luminescence, cell number.
Where [2] appears, read: measured here: IkBa-CBG green luminescence.

Molecules are shown by their SMILES. This is one part of the list. Shown are side measurements of this screen, not its main read-out; they come without a call. The list favours compounds with an active or inconclusive main result. Potencies come from curve fits of mixed quality, noted in brackets.

Consider `COc1ccc(Cn2ccnc2SCC(=O)Nc2ccccc2OC)cc1`, for which, under setting [1], the AC50 was 5.62 µM [rising, single point]. Same read-out and setting: then `COc1ccccc1C(=O)Nc1cccc(NC(=O)c2ccccc2C)c1`, with 14.1 µM [falling, single point]; and `C=CCn1c(=O)c(C(=O)OCC)c(O)c2ccccc21`, with 12.6 µM [falling, partial curve, poor fit]; and `COC(=O)c1ccc2nc(NC(=O)C(C)(C)C)sc2c1`, with 15.8 µM [falling, partial curve].

`COc1cccc(-c2nc(NC3CCCC3)c3ccccc3n2)c1O`: under setting [1], the AC50 is 12.6 µM [falling, partial curve]. For `CN1CCN(c2ccc(-c3cc(O)c4ncccc4c3)cc2)CC1`, under setting [1], the AC50 was 29.1 µM [rising, single point]. In the case of `Cc1ccc(CNC(=O)CN2C(=O)CSc3ccc(S(=O)(=O)N4CCC(C)CC4)cc32)cc1`, the AC50 under setting [1] was 7.94 µM [falling, partial curve]. As to `CS(=O)(=O)c1ccc(Cl)c(NC(=O)COC(=O)CCN=C2NS(=O)(=O)c3ccccc32)c1`, the AC50 under setting [1] was 29.1 µM [rising, single point]. Same read-out and setting: the value for `CCn1ncc(/C=C2/SC(=S)NC2=O)c1C` was 1.64 µM [rising, full curve]. Take `Cc1cc[n+](C2=C([O-])c3ccccc3C(=O)/C2=N\S(=O)(=O)c2cccs2)cc1C`: under setting [1], the AC50 is 20.6 µM [falling, single point]. For `CN(C)c1ccc(NC2=C(Cl)C(=O)c3ccccc3C2=O)cc1`, the AC50 under setting [1] is 20.6 µM [falling, single point]. Turning to `C=C(C)c1cccc(C(C)(C)NC(=O)NNC(=O)c2ccccc2O)c1`, under setting [1], the AC50 is 1.58 µM [rising, partial curve, poor fit]. `Nc1nc(SCCO)[nH]c(=O)c1NC(=O)c1ccc(Br)o1`: the AC50 under setting [1] is 20 µM [falling, single point]. Same read-out and setting: the value for `CCOC(=O)C1CCCN(C(=O)c2cc(Nc3ccc(OC)c(OC)c3)nc3ccccc23)C1` (stereo not drawn) was 35.5 µM [falling, single point]; that for `Cc1cc(C)nc(N2CCCC(C(=O)NCCc3cccc(F)c3)C2)n1` (stereo not drawn) was 6.51 µM [falling, partial curve, poor fit]. On to `Cc1ccc2nc(-c3ccccn3)cc(C(=O)NC3CCN(C)CC3)c2c1`, for which the AC50 under setting [1] was 0.116 µM [rising, full curve, poor fit]. For `CCCn1c2ccccc2c2cnn(CC(=O)N3CCN(c4ccccc4)CC3)c(=O)c21`, the AC50 under setting [1] was 12.6 µM [rising, partial curve, poor fit].

For `COc1ccccc1Nc1ccc(Nc2ccccc2OC)nn1`, the AC50 under setting [1] is 2.59 µM [falling, full curve]. Regarding `O=C1CCc2cc(OCCCCc3nnnn3C3CCCCC3)ccc2N1`, the AC50 under setting [1] is 9.2 µM [rising, partial curve] and the AC50 under setting [2] was 20.6 µM [falling, single point].

On to `COc1ccc(-c2[nH]c(-c3ccccc3)nc2SCC(=O)Nc2nccs2)cc1`, for which the AC50 under setting [1] was 18.4 µM [falling, single point].

As to `CCOc1cc(C2c3c(n[nH]c3C)C(=O)N2c2ccc(Br)cc2)ccc1O` (stereo not drawn), under setting [1], the AC50 was 29.1 µM [falling, single point]. In the case of `Cc1ccccc1C(=O)N1CCC(C(=O)Nc2ccc(S(=O)(=O)N3CCCCC3)cc2)CC1`, under setting [1], the AC50 is 35.5 µM [falling, single point]. For `Cc1cccc(OCC(=O)Nc2cccc(-c3nnc(-c4ccccc4)o3)c2)c1C`, the AC50 under setting [1] is 5.17 µM [rising, single point]. Turning to `C=CCN(CC=C)CCOc1ccc(OC(C)C)cc1`, under setting [1], the AC50 was 11.2 µM [rising, partial curve, poor fit]. Turning to `C/C(=C\C(=S)Nc1ccccc1)Nc1ccc2ccccc2c1`, the AC50 under setting [1] was 29.1 µM [falling, single point]. Take `CCOC(=O)c1c(N)nn(C(C)=O)c1-c1ccccc1`: the AC50 under setting [1] is 11.2 µM [falling, partial curve, poor fit].

Consider `CCOC(=O)/C=C/C(=O)Nc1ccccc1-c1ccccc1NC(=O)/C=C/C(=O)OCC`, for which the AC50 was 29.1 µM [falling, single point] under setting [1] and 23.1 µM [rising, partial curve, poor fit] under setting [2]. As to `Cc1ccc(N/C=C/C(=O)c2cccs2)cc1`, the AC50 under setting [1] is 15.8 µM [falling, single point]. Turning to `CN(CC(=O)Nc1ccccc1Br)C(=O)c1ccccc1-c1nc2ccccc2s1`, the AC50 under setting [1] is 14.1 µM [rising, partial curve, poor fit]. On the same count and under the same terms, then `CC(C(=O)NC(=O)NC1CCCCC1)N1CCN(c2ccc(O)cc2)CC1` (stereo not drawn), with 18.4 µM [rising, single point]. On the same count and under the same terms, then `Cc1ccccc1/C=N/Nc1nc2ccccc2c(=O)n1O`, with 11.2 µM [falling, partial curve, poor fit]; and `Clc1ccc(-c2cn3cc(Br)ccc3n2)cc1Cl`, with 16.4 µM [falling, single point]; and `O=C(NCCc1ccccc1)C(=O)NCC1OCCCN1S(=O)(=O)c1cccs1` (stereo not drawn), with 35.5 µM [rising, single point]. The same measure, in the same setting: then `CN(C)C(=O)N1CCC(C(=O)NCc2ccccc2)CC1`, with 2.06 µM [rising, full curve, poor fit]. For the compound `COc1cc(/C=N/NC(=O)c2cccc(NC(=O)c3ccccc3C)c2)ccc1O`, the AC50 under setting [1] is 25.1 µM [falling, single point].

Consider `O=C(Nc1ccc(Cl)cn1)c1ccc2c(c1)OCCO2`, for which the AC50 under setting [1] is 7.08 µM [falling, partial curve]. The same measure, in the same setting: then `Cc1ccc(C)c2[nH]c(=O)c(C(c3nnnn3Cc3ccco3)N3CCc4ccccc4C3)cc12` (stereo not drawn), with 14.1 µM [falling, partial curve, poor fit]; and `O=C(C1=C[C@@H](c2ccc(C(F)(F)F)cc2)C[C@@H](OCCCCO)O1)N1CCN(Cc2ccccc2)CC1`, with 3.98 µM [falling, partial curve]. Regarding `CCNC(=S)N/N=C/c1ccc(F)cc1`, the AC50 was 12.6 µM [rising, partial curve, poor fit] under setting [1] and 35.5 µM [falling, partial curve, poor fit] under setting [2]. Take `O=C(Nc1nc(-c2ccccn2)cs1)c1ccc([N+](=O)[O-])o1`: the AC50 under setting [1] was 35.5 µM [falling, single point].
